PubChem BioAssay AID1671195 – Yale University – 2021

Screen: 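Regulators of LDL receptor activity judged by labelled LDL uptake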 (primary screen)
System: human Huh7 hepatoma cells
Knock-down reagent: siRNA pool against human genes, 18 nM
Timing: about 2 to 2.5 days of knockdown, then 8 h LDL uptake
Conditions: DiI-labelled LDL at 30 µg/ml for 8 h, in lipoprotein-deficient serum medium
Measurement: 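Fluorescent LDL signal imaged in cells, scaled to the plate median, robust z-score for each replicate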
Reading the numbers: robust z-score: higher = more LDL uptake after knockdown
Call rule: 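a gene counts as active if at least two replicate z-scores exceed ±2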
In all, the deposit lists about 22,000 reagents; below is an unselected part. Of all reagents, about 1,510 (6.9%) got an active call. 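Active includes knockdowns raising or lowering LDL uptake; positive z-scores mean more uptake, negative mean less.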

Gene	robust z-score, replicate 1	robust z-score, replicate 2	robust z-score, replicate 3	call
MRGPRX4 (MAS related GPR family member X4)	-0.677	-0.506	-0.0392	inactive
H3C10 (H3 clustered histone 10)	-0.505	-0.155	-0.561	inactive
EDAR (ectodysplasin A receptor)	0.942	2.22	0.39	inactive
APOC3 (apolipoprotein C3)	-1.21	-1.05	-0.992	inactive
MBD3L2 (methyl-CpG binding domain protein 3 like 2)	0.131	0.155	-0.661	inactive
ARHGEF40 (Rho guanine nucleotide exchange factor 40)	-1.65	-0.861	-1.81	inactive
PCYT2 (phosphate cytidylyltransferase 2, ethanolamine)	-0.51	-0.848	-1.09	inactive
SOD1 (superoxide dismutase 1)	4.37	4.69	3.65	active
CCDC85B (coiled-coil domain containing 85B)	3.15	3.48	3.19	active
ZNF814 (zinc finger protein 814)	-1.04	-1.22	-1.09	inactive
MMP19 (matrix metallopeptidase 19)	-0.582	-0.75	-0.54	inactive
LACTB (lactamase beta)	2.95	2.01	2.6	active
CPD (carboxypeptidase D)	0.603	0.644	0.287	inactive
FREM3 (FRAS1 related extracellular matrix 3)	-0.458	-0.508	-0.735	inactive
BCAT2 (branched chain amino acid transaminase 2)	-0.441	0.166	-0.469	inactive
TLDC2 (TBC/LysM-associated domain containing 2)	1.36	1.84	0.708	inactive
DDX11 (DEAD/H-box helicase 11)	-1.26	-1.22	-0.757	inactive
SLC12A9	-0.00901	0.208	0.125	inactive
OR2D2 (olfactory receptor family 2 subfamily D member 2)	-1.05	-0.782	-1.06	inactive
KCNK18 (potassium two pore domain channel subfamily K member 18)	-0.779	-0.839	-0.439	inactive
IL33R (interleukin 33 receptor)	0.939	0.178	0.583	inactive
SFXN3 (sideroflexin 3)	-0.314	-0.762	-0.481	inactive
LINC02245 (long independently transcribed non-coding RNA 2245)	0.217	-0.516	-0.136	inactive
RGS22 (regulator of G protein signaling 22)	0.587	-2.11	0.628	inactive
ARHGEF18 (Rho/Rac guanine nucleotide exchange factor 18)	0.425	0.111	0.27	inactive
LOC388248 (Rho GTPase activating protein 23 pseudogene)	-0.449	-0.676	-0.582	inactive
CALCOCO1 (calcium binding and coiled-coil domain 1)	-0.306	-1.18	-0.924	inactive
CHST11 (carbohydrate sulfotransferase 11)	0.221	-0.451	-0.258	inactive
IGHV5-78 (immunoglobulin heavy variable 5-78 (pseudogene))	-0.554	0.29	-0.00107	inactive
TIGD7 (tigger transposable element derived 7)	0.499	0.522	0.0958	inactive
TULP2 (TUB like protein 2)	1.84	0.188	0.0313	inactive
LOC441879 (retired record)	0.454	0.491	0.619	inactive
RETREG1 (reticulophagy regulator 1)	-1.25	0.836	-0.554	inactive
TUBGCP5 (tubulin gamma complex component 5)	0.379	-1.58	-0.753	inactive
THBS3 (thrombospondin 3)	-0.193	-0.531	-1.55	inactive
RPS6KA6 (ribosomal protein S6 kinase A6)	1.1	-0.96	0.206	inactive
NSMCE4A (NSE4A component of SMC5/6 complex)	-0.666	-0.323	0.00893	inactive
TMX4 (thioredoxin related transmembrane protein 4)	0.208	-0.0494	-0.343	inactive
ETV3 (ETS variant transcription factor 3)	-0.349	-0.847	1.83	inactive
RPAP3 (RNA polymerase II associated protein 3)	-0.678	0.917	-0.55	inactive
HPGD (15-hydroxyprostaglandin dehydrogenase)	-0.582	-0.134	-1.21	inactive
LOC441552 (retired record)	-1.81	-1.77	-1.5	inactive
NKX2-8 (NK2 homeobox 8)	0.252	0.486	0.59	inactive
ICAM1 (intercellular adhesion molecule 1)	-0.426	-0.563	0.0761	inactive
CA2 (carbonic anhydrase 2)	-3.38	-1.15	-1.06	inactive
PLEKHM1 (pleckstrin homology and RUN domain containing M1)	-0.901	1.48	0.0174	inactive
C15orf61 (chromosome 15 open reading frame 61)	1.22	3.26	1.94	inactive
LINC02897 (long independently transcribed non-coding RNA 2897)	4.38	3.95	4.58	active
MAPK3 (mitogen-activated protein kinase 3)	-0.819	-0.117	0.369	inactive
HPN (hepsin)	-0.283	-0.527	0.0913	inactive
TUBA8 (tubulin alpha 8)	-0.337	-0.863	-0.547	inactive
CIB3 (calcium and integrin binding family member 3)	0.042	0.46	0.574	inactive
TESPA1 (thymocyte expressed, positive selection associated 1)	-0.37	1.39	0.546	inactive
ITGA8 (integrin subunit alpha 8)	-0.264	-1.64	-1.55	inactive
RRM1 (ribonucleotide reductase catalytic subunit M1)	-1.6	-1.75	-1.86	inactive
HYKK (hydroxylysine kinase)	1.02	0.949	1.79	inactive
DCTPP1 (dCTP pyrophosphatase 1)	-0.0386	-0.78	0.173	inactive
FGFR1OP2 (FGFR1 oncogene partner 2)	-1.77	-0.641	-1.08	inactive
WSB2 (WD repeat and SOCS box containing 2)	-0.739	0.801	-1.32	inactive
CETN3 (centrin 3)	0.766	0.745	0.81	inactive
EXOC3L1 (exocyst complex component 3 like 1)	-0.401	-0.313	-0.259	inactive
LPP	0.913	0.934	0.403	inactive
SHMT2 (serine hydroxymethyltransferase 2)	-0.369	-0.18	0.256	inactive
RNF139 (ring finger protein 139)	-0.575	0.536	0.175	inactive
KCNC2 (potassium voltage-gated channel subfamily C member 2)	0.321	0.498	0.262	inactive
PCDHGB2 (protocadherin gamma subfamily B, 2)	-1.91	-1.67	-1.68	inactive
SCARB2 (scavenger receptor class B member 2)	-0.257	0.541	0.457	inactive
CDKN2D (cyclin dependent kinase inhibitor 2D)	-0.093	0.612	-0.156	inactive

Entries above whose target name begins with A or a (3):
Gene	robust z-score, replicate 1	robust z-score, replicate 2	robust z-score, replicate 3	call
APOC3 (apolipoprotein C3)	-1.21	-1.05	-0.992	inactive
ARHGEF40 (Rho guanine nucleotide exchange factor 40)	-1.65	-0.861	-1.81	inactive
ARHGEF18 (Rho/Rac guanine nucleotide exchange factor 18)	0.425	0.111	0.27	inactive
